## Library screen at single concentrations

Data taken from ChEMBL document CHEMBL3988442, “University of Dundee, Small-Polar-MMV Screening Library” (2021).

A: 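Whole-cell growth test on Mycobacterium tuberculosis, read after 4 days in a medium based on cholesterol and the lipid DPPC; the read-out is not stated. Tested at 50 µM. Higher reads as more growth inhibition (inferred: compounds with an IC50 in retests scored well above the rest). Size under these conditions: about 69,000 compounds, about 370 of them at 50% or above in at least one test.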
B: 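Growth of Mycobacterium tuberculosis over 3 days (7H9 medium with glucose and tyloxapol); the read-out is not stated. Tested at 50 µM. Direction is inferred from retests: higher values go with more growth inhibition. Of about 69,000 compounds tested this way, about 760 (1.1%) reached 50% or more in at least one test.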

Each number is a percent effect as filed. How 0% and 100% were set is not recorded. Most values in the screen are low, and negative values occur. This is an unselected part of the compounds tested. Two or more numbers in one place are separate tests of the same structure; such repeats can differ widely.

{"compound": "Cc1nn(C)c(=O)c2nn(-c3ccc(F)cc3)c(C)c12", "A": -31.81, "B": "-1.833 and 32.4"}
{"compound": "COc1ccc2nc(O)c(CN(C)Cc3ncc[nH]3)cc2c1", "A": -23.84, "B": "-52.73 and -3.877"}
{"compound": "O=C(CN1CCCC1Cn1cccn1)NC1CCN(C2CC2)CC1", "stereo": "stereo not given", "A": "-4.906 and -10.2", "B": 13.01}
{"compound": "CCOC1CCN(C(=O)NCCN(C)C(=O)OC(C)(C)C)CC1", "A": 5.115, "B": "2.765 and 21.58"}
{"compound": "CCn1ncc(CN(C)C(=O)c2ccn(C)n2)c1C", "A": 23.92, "B": -1.734}
{"compound": "O=C(O)C(F)(F)F.O=C(O)C(F)(F)F.O=C(O)C(F)(F)F.c1cncc(C[C@H]2[C@H](N3CCOCC3)CCN2Cc2nccs2)c1", "A": -19.91, "B": "-31.26 and -4.535"}
{"compound": "Cc1ccc(F)cc1NC(=O)C1CCCN1C(=O)C(C)C", "stereo": "stereo not given", "A": -11.45, "B": -15.31}
{"compound": "CN(C)c1nc2c(c(=O)[nH]1)CCN(C(=O)c1c[nH]c(=O)c(Cl)c1)C2", "A": -2.331, "B": -1.372}
{"compound": "CCc1nnc2ccc(N3CCN(S(=O)(=O)c4ccc(Cl)s4)CC3)nn12", "A": -5.715, "B": -7.788}
{"compound": "CC(c1cccc(F)c1)N1CCN(Cc2nccn2C)CC1", "stereo": "stereo not given", "A": -3.063, "B": 22.8}
{"compound": "CC(C)c1cc(COCCCC(=O)O)no1", "A": 8.47, "B": 15.3}
{"compound": "COCc1ccccc1C(=O)N1CCn2c(nnc2C(C)C)C1", "A": -7.358, "B": "2.834 and -1.286"}
{"compound": "O=C(CC1COCCN1)N1CCC(N2CCc3ccccc3C2)CC1", "stereo": "stereo not given", "A": -4.905, "B": -32.68}
{"compound": "Cc1cnc(C)c(N2CCC3(CCCN(C4CCOCC4)C3=O)C2)n1", "stereo": "stereo not given", "A": 9.79, "B": 7.423}
{"compound": "CS(=O)(=O)c1ccc(-c2cc(O)cc(CCC3CCCCN3)c2)cc1", "stereo": "stereo not given", "A": 2.52, "B": 26.89}
{"compound": "Cc1nc(C(C)NC(=O)NCc2nccn2CC(C)C)cs1", "stereo": "stereo not given", "A": -10.26, "B": 7.583}
{"compound": "CCc1nc(C2CCCN(C(=O)c3ccccc3Cl)C2)no1", "stereo": "stereo not given", "A": 35.9, "B": "-11.17 and 34.52"}
{"compound": "CC(C)c1cc(C2CCCN2C(=O)c2cn3ccsc3n2)no1", "stereo": "stereo not given", "A": -36.37, "B": -7.126}
{"compound": "Cc1nn(C)cc1CN1CCCC1c1cccc(Nc2nccs2)n1", "stereo": "stereo not given", "A": "11.18 and 12.45", "B": -0.1892}
{"compound": "O=C(CCOc1cccc(F)c1)N1CCCC(n2cccn2)C1", "stereo": "stereo not given", "A": 4.227, "B": -0.299}
{"compound": "COCCC1CN(Cc2cn(CCC(N)=O)c3ccccc23)CCO1", "stereo": "stereo not given", "A": "-23.4 and -2.27", "B": "-1.181 and 13.18"}
{"compound": "O=C(Cc1ccc(F)cc1)NCCNc1cc(N2CCCC2)ncn1", "A": 7.769, "B": 2.338}
{"compound": "O=C(O)C(c1ccc(Cl)c(F)c1)N1CCN(Cc2ccccn2)CC1", "stereo": "stereo not given", "A": 10.65, "B": 19.05}
{"compound": "c1cc(NC2CC3(CCN(Cc4cscn4)C3)C2)ncn1", "stereo": "stereo not given", "A": "3.82 and 2.667", "B": 20.17}
{"compound": "N#Cc1ccccc1N1CCC(Nc2nccnc2C#N)CC1", "A": -5.704, "B": "-3.517 and 0.6727"}
{"compound": "Cc1cc(C)nc(C2CCN(C(=O)CCn3ncc4ccccc43)C2)n1", "stereo": "stereo not given", "A": -8.03, "B": -10.13}
{"compound": "O=C(O)C(F)(F)F.O=C(O)C(F)(F)F.O=C(O)c1cc2c(nc1-c1ccoc1)CCN(CC1CCOC1)CC2", "stereo": "stereo not given", "A": -6.822, "B": 5.008}
{"compound": "CC(C)[C@H]1CN(Cc2nccn2C)C[C@@H]1NC(=O)CCS(C)(=O)=O", "A": 18.22, "B": 14.64}
{"compound": "CN(C)S(=O)(=O)N1CCC(OCCCc2ccccc2)C1", "stereo": "stereo not given", "A": 0.7187, "B": "16.56 and 10.31"}
{"compound": "CCN1Cc2cc3c(cc2NCCC1=O)OCO3", "A": -8.981, "B": -3.013}
{"compound": "CN1CCN(C[C@H]2CC[C@@H](Cc3ccc(CN4CCCC4)cc3)O2)CC1", "A": 19.37, "B": 18.94}
{"compound": "COCCNC(=O)c1cc(S(=O)(=O)N2CCCC2)cs1", "A": -15.27, "B": -39.37}
{"compound": "CC(C)N1CCc2c(C(=O)N3CCOCC3)nn(C)c2C1.O=C(O)C(F)(F)F", "A": 6.388, "B": 3.093}
{"compound": "O=C(COC1CCCC1)N1CCCN(c2ncccn2)CC1", "A": -27.14, "B": -35.82}
{"compound": "CNC(=O)N1CCC2(CC1)C(=O)N(C)c1c(F)cccc12", "A": -13.98, "B": "-33.16 and -4.342"}
{"compound": "Cc1cnc(C(=O)N(CCN(C)C)Cc2ccc(Cl)cc2)cn1", "A": 14.36, "B": "22.5 and -2.418"}
{"compound": "Cc1ccsc1CN(C)Cc1ncccc1C(=O)O", "A": -2.925, "B": 2.91}
{"compound": "CC(NC(=O)NCCNc1ccccn1)c1cccs1", "stereo": "stereo not given", "A": 12.91, "B": 35.22}
{"compound": "Cc1cccc(N2CCCC3(C2)CN(S(=O)(=O)C2CC2)CCO3)c1.O=C(O)C(F)(F)F", "stereo": "stereo not given", "A": 9.814, "B": "-3.292 and 14.97"}
{"compound": "O=C(O)C(F)(F)F.O=C(O)C(F)(F)F.[H][C@@]12CCCO[C@]1([H])[C@H](N(C)Cc1ccco1)CN(Cc1ccc(F)cc1)C2", "A": -22.38, "B": -7.71}
{"compound": "CN(CC(=O)N1CCCC1Cn1cccn1)C1CC1", "stereo": "stereo not given", "A": 2.13, "B": -10.56}
{"compound": "CCNC(=O)NC[C@H]1COCc2nc3cc(OC)ccc3n21", "A": -1.488, "B": "28.66 and 9.732"}
{"compound": "CCc1n[nH]c(C2CN(C(=O)c3cnc(C)nc3CC)CCO2)n1", "stereo": "stereo not given", "A": -11.49, "B": -26.53}
{"compound": "Cn1cc(C2CCCN2C(=O)CCc2cnn(-c3ccccc3)c2)cn1", "stereo": "stereo not given", "A": -5.604, "B": "-2.91 and -27.2"}
{"compound": "COc1cccc2c(=O)n(Cc3cccnc3)cnc12", "A": 2.64, "B": 7.809}
{"compound": "[H][C@]12CN(S(C)(=O)=O)CCN1C[C@H](c1ccccc1)[C@H]2C(=O)OCC", "A": -0.5619, "B": 6.932}
{"compound": "COCCN(C/C=C/c1ccccc1)Cc1ccccn1", "A": 0.2196, "B": 20.51}

The first 3 entries again:

{"compound": "Cc1nn(C)c(=O)c2nn(-c3ccc(F)cc3)c(C)c12", "A": -31.81, "B": "-1.833 and 32.4"}
{"compound": "COc1ccc2nc(O)c(CN(C)Cc3ncc[nH]3)cc2c1", "A": -23.84, "B": "-52.73 and -3.877"}
{"compound": "O=C(CN1CCCC1Cn1cccn1)NC1CCN(C2CC2)CC1", "stereo": "stereo not given", "A": "-4.906 and -10.2", "B": 13.01}